Reference: US20170224819A1, “Therapeutic Combinations of a BTK Inhibitor, a PI3K Inhibitor, a JAK-2 Inhibitor, and/or a CDK 4/6 Inhibitor” (Acerta Pharma B.V., priority 2014, published 2017)

Tested on: chronic lymphocytic leukemia (CLL)
Assay: Clinical study of Formula (XVIII) in relapsed/refractory CLL

CC#CC(=O)N1CCC[C@H]1c1nc(-c2ccc(C(=O)Nc3ccccn3)cc2)c2c(N)nccn12 [Formula (XVIII), (S)-4-(8-amino-3-(1-(but-2-ynoyl)pyrrolidin-2-yl)imidazo[1,5-a]pyrazin-1-yl)-N-(pyridin-2-yl)benzamide]
Median Cycles (100 mg BID (N = 3)): 5.2 cycles | Median Cycles (100 mg QD (N = 8)): 10.0 cycles | Median Cycles (175 mg QD (N = 8)): 8.6 cycles | Median Cycles (250 mg QD (N = 7)): 7.0 cycles | Median Cycles (400 mg QD (N = 5)): 5.0 cycles | Median Cycles (All Cohorts (N = 31)): 7.3 cycles
